PubChem BioAssay AID1259254 – NCATS | 2017
Purpose: 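Finding genes that stop cells copying their DNA twice in one cycle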 (primary screen). Cells: human HCT116 colorectal cancer cells. Reagents: single siRNA against human genes. Time to read-out: 3 days. Read-out: 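Imaged Hoechst DNA stain sorts each cell into a cycle phase by DNA amount; per plate, G2 fraction set to 0% for non-targeting and 100% for GMNN siRNA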. Reading the numbers: G2 robust z-score and G2 cells, % of GMNN control: higher = more G2 cells, more excess DNA replication; raw share of cells in G2: higher = larger share of cells with G2 DNA content. Hit rule: 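Active siRNAs have a G2 robust z of 5 or more median absolute deviations over the median, which in these data means about 38% or higher of GMNN control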.
Here is a random part of about 59,000 reagents tested. Over the whole deposit, about 1,550 (2.6%) were called active. 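G2 share is only a proxy for re-replication; each gene was hit by three separate siRNAs, and active genes were retested.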 Raw values are not corrected between plates. A number with no mark means an inactive call. Reagents against one gene are numbered here. Not given: the amount of reagent.

| gene symbol | siRNA no. | G2 robust z-score | G2 cells, % of GMNN control | raw share of cells in G2 (%) |
| --- | --- | --- | --- | --- |
| ALG6 (ALG6 alpha-1,3-glucosyltransferase) | 1 | -0.358 | 0.448 | 6.37 |
| ALG6 (ALG6 alpha-1,3-glucosyltransferase) | 2 | -1.19 | -5.42 | 2.39 |
| ALG6 (ALG6 alpha-1,3-glucosyltransferase) | 3 | 0.87 | 9.09 | 6.96 |
| SLCO5A1 | 1 | 0.0511 | 3.33 | 6.82 |
| SLCO5A1 | 2 | 0.736 | 8.14 | 7.14 |
| SLCO5A1 | 3 | -0.532 | -0.778 | 4.5 |
| C1orf56 (chromosome 1 open reading frame 56) | 1 | -1.06 | -4.5 | 1.99 |
| C1orf56 (chromosome 1 open reading frame 56) | 2 | 0.13 | 3.88 | 5.91 |
| C1orf56 (chromosome 1 open reading frame 56) | 3 | 1.02 | 10.2 | 6.55 |
| CD5L (CD5 molecule like) | 1 | 0.203 | 4.39 | 6.6 |
| CD5L (CD5 molecule like) | 2 | -0.224 | 1.39 | 4.57 |
| CD5L (CD5 molecule like) | 3 | -0.237 | 1.3 | 5.43 |
| MMP1 (matrix metallopeptidase 1) | 1 | -0.0647 | 2.51 | 6.43 |
| MMP1 (matrix metallopeptidase 1) | 2 | 5.46 (active) | 41.4 | 19.6 |
| MMP1 (matrix metallopeptidase 1) | 3 | 0.199 | 4.37 | 5.54 |
| RRP1 (ribosomal RNA processing 1) | 1 | 1.29 | 12 | 10.5 |
| RRP1 (ribosomal RNA processing 1) | 2 | -0.259 | 1.14 | 4.35 |
| RRP1 (ribosomal RNA processing 1) | 3 | 2.27 | 18.9 | 10 |
| NEUROD1 (neuronal differentiation 1) | 1 | 0.728 | 8.09 | 8.68 |
| NEUROD1 (neuronal differentiation 1) | 2 | -0.303 | 0.838 | 5.68 |
| NEUROD1 (neuronal differentiation 1) | 3 | -1.12 | -4.92 | 1.57 |
| AIG1 (androgen induced 1) | 1 | -0.643 | -1.56 | 3.04 |
| AIG1 (androgen induced 1) | 2 | -0.247 | 1.23 | 4.79 |
| AIG1 (androgen induced 1) | 3 | 0.593 | 7.14 | 5.55 |
| DESI1 (desumoylating isopeptidase 1) | 1 | -0.37 | 0.363 | 3.37 |
| DESI1 (desumoylating isopeptidase 1) | 2 | -0.498 | -0.534 | 3.65 |
| DESI1 (desumoylating isopeptidase 1) | 3 | 1.49 | 13.5 | 9.64 |
| DERA (deoxyribose-phosphate aldolase) | 1 | 0.527 | 6.68 | 6.36 |
| DERA (deoxyribose-phosphate aldolase) | 2 | 0.22 | 4.52 | 8 |
| DERA (deoxyribose-phosphate aldolase) | 3 | -0.385 | 0.26 | 4.34 |

Reagents listed above with an active call (1):
| gene symbol | siRNA no. | G2 robust z-score | G2 cells, % of GMNN control | raw share of cells in G2 (%) |
| --- | --- | --- | --- | --- |
| MMP1 (matrix metallopeptidase 1) | 2 | 5.46 (active) | 41.4 | 19.6 |
